These are yes or no findings as the source states them, for the method shown. In cells and extracts the contact can be indirect. Some results given as binding are weak or reduced against the parent protein; the word gives no strength.

Amino acid sequences for entries named in this document (tags omitted). A change or cut given only in a name is not applied to a line headed by its entry. Chains listed by the source or under a name are the forms on record and can include a tag or linker.
endogenously HA-tagged CIC in HEK293 cells (CRISPR/Cas9 knock-in) (human (endogenous in HEK293)) (Q96RK0, form named): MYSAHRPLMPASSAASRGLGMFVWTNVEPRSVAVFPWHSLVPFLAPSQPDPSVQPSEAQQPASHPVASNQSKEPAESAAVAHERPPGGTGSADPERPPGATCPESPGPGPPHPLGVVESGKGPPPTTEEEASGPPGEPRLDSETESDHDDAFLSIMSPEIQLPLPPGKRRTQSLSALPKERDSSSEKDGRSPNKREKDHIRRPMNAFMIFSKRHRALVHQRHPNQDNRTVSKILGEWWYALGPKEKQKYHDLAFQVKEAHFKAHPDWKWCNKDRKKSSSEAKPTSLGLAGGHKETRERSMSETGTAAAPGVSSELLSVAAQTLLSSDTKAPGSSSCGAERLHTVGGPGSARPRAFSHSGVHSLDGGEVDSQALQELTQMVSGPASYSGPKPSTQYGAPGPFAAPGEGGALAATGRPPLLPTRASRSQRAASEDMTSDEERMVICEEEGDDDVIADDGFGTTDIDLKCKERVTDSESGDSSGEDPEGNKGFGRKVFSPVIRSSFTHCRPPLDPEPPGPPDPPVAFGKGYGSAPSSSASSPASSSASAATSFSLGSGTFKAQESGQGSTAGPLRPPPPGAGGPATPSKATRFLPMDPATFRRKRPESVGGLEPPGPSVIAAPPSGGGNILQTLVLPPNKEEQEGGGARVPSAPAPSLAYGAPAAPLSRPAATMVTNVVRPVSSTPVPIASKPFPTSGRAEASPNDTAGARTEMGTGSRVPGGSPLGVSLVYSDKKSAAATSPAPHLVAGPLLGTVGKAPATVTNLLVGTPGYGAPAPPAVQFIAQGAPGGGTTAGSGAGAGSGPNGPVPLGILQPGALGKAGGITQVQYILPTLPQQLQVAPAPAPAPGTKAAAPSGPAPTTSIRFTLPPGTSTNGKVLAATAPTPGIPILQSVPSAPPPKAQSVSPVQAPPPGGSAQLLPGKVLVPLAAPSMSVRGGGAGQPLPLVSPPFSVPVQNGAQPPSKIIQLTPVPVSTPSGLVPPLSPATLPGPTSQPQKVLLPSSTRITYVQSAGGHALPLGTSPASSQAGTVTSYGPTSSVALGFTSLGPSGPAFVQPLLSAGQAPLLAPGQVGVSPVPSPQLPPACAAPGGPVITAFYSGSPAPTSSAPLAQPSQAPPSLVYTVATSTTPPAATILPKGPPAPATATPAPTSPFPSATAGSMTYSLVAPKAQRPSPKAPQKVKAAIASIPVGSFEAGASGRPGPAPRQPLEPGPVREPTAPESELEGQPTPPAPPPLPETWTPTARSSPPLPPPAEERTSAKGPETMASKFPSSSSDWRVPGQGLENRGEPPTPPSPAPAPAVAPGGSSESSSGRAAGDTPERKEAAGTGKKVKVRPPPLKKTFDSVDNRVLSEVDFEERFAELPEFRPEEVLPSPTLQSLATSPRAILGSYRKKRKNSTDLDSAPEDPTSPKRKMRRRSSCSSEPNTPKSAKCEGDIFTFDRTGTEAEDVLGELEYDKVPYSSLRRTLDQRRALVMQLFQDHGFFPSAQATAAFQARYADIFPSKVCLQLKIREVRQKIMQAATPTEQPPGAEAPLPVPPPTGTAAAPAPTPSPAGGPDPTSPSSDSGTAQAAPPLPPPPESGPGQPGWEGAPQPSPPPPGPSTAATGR
GFP-CIC(S173A) (Q96RK0, form named): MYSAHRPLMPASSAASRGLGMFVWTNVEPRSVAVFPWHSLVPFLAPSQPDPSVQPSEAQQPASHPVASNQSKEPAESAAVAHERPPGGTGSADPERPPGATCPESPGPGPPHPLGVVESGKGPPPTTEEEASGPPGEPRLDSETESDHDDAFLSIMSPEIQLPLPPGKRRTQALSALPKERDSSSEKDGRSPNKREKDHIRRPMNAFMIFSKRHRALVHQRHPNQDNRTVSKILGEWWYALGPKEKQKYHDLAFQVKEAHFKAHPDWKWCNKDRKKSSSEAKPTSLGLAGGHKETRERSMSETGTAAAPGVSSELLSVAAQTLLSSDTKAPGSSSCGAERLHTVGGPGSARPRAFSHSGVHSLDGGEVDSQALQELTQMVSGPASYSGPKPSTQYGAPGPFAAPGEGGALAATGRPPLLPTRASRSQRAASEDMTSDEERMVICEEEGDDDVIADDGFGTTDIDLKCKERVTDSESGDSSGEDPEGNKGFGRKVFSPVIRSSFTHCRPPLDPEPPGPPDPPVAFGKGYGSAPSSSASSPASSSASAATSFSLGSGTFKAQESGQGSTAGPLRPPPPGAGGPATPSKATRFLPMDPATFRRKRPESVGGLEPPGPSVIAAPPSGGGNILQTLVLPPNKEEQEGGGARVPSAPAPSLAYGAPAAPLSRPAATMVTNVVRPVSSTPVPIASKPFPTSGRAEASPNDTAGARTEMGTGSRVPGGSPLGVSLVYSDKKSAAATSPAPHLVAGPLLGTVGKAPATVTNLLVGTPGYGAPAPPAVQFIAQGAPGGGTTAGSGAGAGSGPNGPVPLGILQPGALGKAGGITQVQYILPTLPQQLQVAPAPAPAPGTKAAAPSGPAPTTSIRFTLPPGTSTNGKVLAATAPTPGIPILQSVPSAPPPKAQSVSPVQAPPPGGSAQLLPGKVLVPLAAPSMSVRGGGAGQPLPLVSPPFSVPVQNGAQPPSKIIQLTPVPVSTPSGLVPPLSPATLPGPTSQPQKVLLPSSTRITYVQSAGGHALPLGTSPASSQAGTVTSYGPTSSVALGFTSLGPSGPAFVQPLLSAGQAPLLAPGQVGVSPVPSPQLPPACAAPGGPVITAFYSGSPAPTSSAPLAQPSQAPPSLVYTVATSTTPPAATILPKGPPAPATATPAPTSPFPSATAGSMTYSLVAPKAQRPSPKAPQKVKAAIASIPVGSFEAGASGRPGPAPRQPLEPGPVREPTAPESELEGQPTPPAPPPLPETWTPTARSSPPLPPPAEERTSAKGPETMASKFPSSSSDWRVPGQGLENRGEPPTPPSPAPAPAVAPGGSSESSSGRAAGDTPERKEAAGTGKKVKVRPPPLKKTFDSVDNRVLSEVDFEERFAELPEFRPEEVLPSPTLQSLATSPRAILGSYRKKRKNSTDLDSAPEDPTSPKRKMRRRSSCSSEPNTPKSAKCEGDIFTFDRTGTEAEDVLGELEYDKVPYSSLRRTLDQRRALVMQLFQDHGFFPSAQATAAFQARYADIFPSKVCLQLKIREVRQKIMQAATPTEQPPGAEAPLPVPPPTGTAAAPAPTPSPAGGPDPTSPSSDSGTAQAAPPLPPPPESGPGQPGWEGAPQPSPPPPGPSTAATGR

Substrate in assay [1]: CIC wild type (Supplementary Figure 5J) (human) (UniProt Q96RK0)
The assay can be described thus: co-IP; Supplementary Figure 5J; legend not shown; immunoprecipitation from cell lysates is the only protein binding method told in the methods.

Assay [2] deals with endogenous CIC in normal human astrocytes (NHA) (human (endogenous in NHA)) (UniProt Q96RK0). Put plainly: co-IP; NHA cells after EGF treatment, lysed in EBC buffer (50 mM Tris pH 8, 120 mM NaCl, 0.5% NP-40), IP with anti-CIC antibody, washed in NETN buffer; endogenous proteins.
The target of the next assay is GFP-CIC (wild type) (UniProt Q96RK0). Put plainly: co-IP; HEK293 cells transfected with indicated plasmids, IP with anti-GFP antibody; EBC lysis buffer, NETN washes.
The next assay has as its target GFP-CIC(S173A) (UniProt Q96RK0). The description is as above.
Assay [3] concerns the target endogenously HA-tagged CIC in HEK293 cells (CRISPR/Cas9 knock-in) (human (endogenous in HEK293)) (UniProt Q96RK0). Put plainly: co-IP; HEK293 cells with endogenously HA-tagged CIC (CRISPR/Cas9), IP with anti-HA antibody; EBC lysis buffer, NETN washes.

B1: PJA1 protein (Supplementary Figure 5J) (enzyme, UniProt Q8NG27 1-643)
chain: MGQESSKPVWPNPTGGYQSNTGRRYGRRHAYVSFRPPTSQRERIASQRKTNSEVPMHRSAPSQTTKRSRSPFSTTRRSWDDSESSGTNLNIDNEDYSRYPPREYRASGSRRGMAYGHIDSYGADDSEEEGAGPVERPPVRGKTGKFKDDKLYDPEKGARSLAGPPPHFSSFSRDVREERDKLDPVPAARCSASRADFLPQSSVASQSSSEGKLATKGDSSERERREQNLPARPSRAPVSICGGGENTSKSAEEPVVRPKIRNLASPNCVKPKIFFDTDDDDDMPHSTSRWRDTANDNEGHSDGLARRGRGESSSGYPEPKYPEDKREARSDQVKPEKVPRRRRTMADPDFWTHSDDYYKYCDEDSDSDKEWIAALRRKYRSREQTLSSSGESWETLPGKEEREPPQAKVSASTGTSPGPGASASAGAGAGASAGSNGSNYLEEVREPSLQEEQASLEEGEIPWLQYHENDSSSEGDNDSGHELMQPGVFMLDGNNNLEDDSSVSEDLEVDWSLFDGFADGLGVAEAISYVDPQFLTYMALEERLAQAMETALAHLESLAVDVEVANPPASKESIDALPEILVTEDHGAVGQEMCCPICCSEYVKGEVATELPCHHYFHKPCVSIWLQKSGTCPVCRCMFPPPL
In the case of B1, in assay [1], the binding result was “binds”.

B2: endogenous PJA1 in normal human astrocytes (NHA) (enzyme, UniProt Q8NG27 1-643)
chain: B1 chain
In the case of B2, the binding entry in assay [2] was “binds”.

B3: PJA1 in transfected HEK293 cells (Fig. 5s) (enzyme, UniProt Q8NG27 1-643)
chain: B1 chain
For B3, the binding entry in the assay with GFP-CIC (wild type) and with GFP-CIC(S173A) was “binds” each time.

B4: endogenous PJA1 in HEK293 cells (enzyme, UniProt Q8NG27 1-643)
chain: B1 chain
As for B4, the binding entry in assay [3] is reported as “binds”.

The record behind these values is publication PMC6368580.
